Results are given in words; binding and its absence hold for the method and conditions named. In cells and extracts the contact can be indirect. Some binding calls cover weakened binding; strength is not graded here. Where a sequence is shown, tags or fusion partners need not be part of it.
T1: GST-fused Pita 95–302 aa fragment (Drosophila melanogaster) (UniProt Q95RQ8)
T1 sequence: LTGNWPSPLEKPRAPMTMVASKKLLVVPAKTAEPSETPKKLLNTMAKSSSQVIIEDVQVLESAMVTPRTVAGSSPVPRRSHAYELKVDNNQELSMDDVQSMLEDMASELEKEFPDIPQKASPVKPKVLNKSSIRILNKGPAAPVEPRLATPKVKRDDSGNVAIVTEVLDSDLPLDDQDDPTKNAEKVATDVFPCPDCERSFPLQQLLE

T2: CP190 (Drosophila melanogaster) (UniProt Q24478)
T2 sequence: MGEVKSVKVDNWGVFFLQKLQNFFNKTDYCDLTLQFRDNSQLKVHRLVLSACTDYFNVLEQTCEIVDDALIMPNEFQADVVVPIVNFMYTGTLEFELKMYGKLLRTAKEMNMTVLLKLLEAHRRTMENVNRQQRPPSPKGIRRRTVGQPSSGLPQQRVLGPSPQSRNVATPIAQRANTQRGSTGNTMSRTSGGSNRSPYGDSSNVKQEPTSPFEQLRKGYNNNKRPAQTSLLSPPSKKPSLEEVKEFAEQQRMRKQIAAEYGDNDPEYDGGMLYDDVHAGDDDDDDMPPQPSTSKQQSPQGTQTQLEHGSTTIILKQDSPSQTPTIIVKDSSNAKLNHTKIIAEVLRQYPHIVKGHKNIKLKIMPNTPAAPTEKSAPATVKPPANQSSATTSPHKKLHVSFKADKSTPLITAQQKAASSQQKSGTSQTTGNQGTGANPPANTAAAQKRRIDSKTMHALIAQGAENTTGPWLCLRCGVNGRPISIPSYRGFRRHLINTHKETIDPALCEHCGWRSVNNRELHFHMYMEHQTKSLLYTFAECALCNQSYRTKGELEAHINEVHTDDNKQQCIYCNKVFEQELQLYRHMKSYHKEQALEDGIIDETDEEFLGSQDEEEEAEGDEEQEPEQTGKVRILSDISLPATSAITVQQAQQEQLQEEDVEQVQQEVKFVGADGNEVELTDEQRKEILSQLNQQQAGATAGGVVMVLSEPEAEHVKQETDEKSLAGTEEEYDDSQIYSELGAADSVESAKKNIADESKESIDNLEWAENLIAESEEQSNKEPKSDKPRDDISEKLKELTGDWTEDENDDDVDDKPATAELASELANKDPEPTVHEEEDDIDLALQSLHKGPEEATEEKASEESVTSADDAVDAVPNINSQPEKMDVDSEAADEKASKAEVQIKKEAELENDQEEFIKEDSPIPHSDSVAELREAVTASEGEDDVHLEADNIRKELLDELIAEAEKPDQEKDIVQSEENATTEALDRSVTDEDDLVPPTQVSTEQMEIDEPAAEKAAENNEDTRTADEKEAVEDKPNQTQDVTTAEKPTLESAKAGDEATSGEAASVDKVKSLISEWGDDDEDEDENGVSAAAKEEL

B1: CP190 BTB domain, CP190[1–126], fused with 6×His-thioredoxin (domain or fragment, UniProt Q24478 1-126)
chain: MGEVKSVKVDNWGVFFLQKLQNFFNKTDYCDLTLQFRDNSQLKVHRLVLSACTDYFNVLEQTCEIVDDALIMPNEFQADVVVPIVNFMYTGTLEFELKMYGKLLRTAKEMNMTVLLKLLEAHRRTM
B2: Pita^wt tagged with 3×FLAG (protein, UniProt Q95RQ8 1-683)
chain: MAAKLEVREAMLTEKRVCRFCLTEQKLASIFEENPRVKTTANLPLQIMAITAIEVYAGDGMPGHICLECRLLFEHCYRFKQMCKRAETLLRQYPLTGNWPSPLEKPRAPMTMVASKKLLVVPAKTAEPSETPKKLLNTMAKSSSQVIIEDVQVLESAMVTPRTVAGSSPVPRRSHAYELKVDNNQELSMDDVQSMLEDMASELEKEFPDIPQKASPVKPKVLNKSSIRILNKGPAAPVEPRLATPKVKRDDSGNVAIVTEVLDSDLPLDDQDDPTKNAEKVATDVFPCPDCERSFPLQQLLEIHRLNHTRSRSFQCLLCEKSFFSKYDLAKHNFVHTGERPFKCAICSKAFTRKALLHRHERTHTDVPKFICVYCEKPFLSRQEMEKHAERHQKKRPFQCGVCTKSFAFKQGLERHETVHSTNLPFPCQHCERSFSTASKLARHLVAHAGKRAYPCKYCHKSYMLSHHLSRHLRTHTQTSDASFVCSECKVSYSNYNDLLDHALIHATASLKCPMCRKQIEDIDSVESHMDQHKQSERHACEFCDHIFLTQKCLQRHIEDDHVVEMEPYQNEFEDDGEGEGGVDEKEEHLDDFEDMDNVKQEEFVTEYLEDDALYEDHLDDSDESFTPPPPKQRKTNPPKDAQQSVRQTRSRDAQRITQKTGKNEGKPHHKLERNLKNRRSAK
B3: Pita^ΔCP1 tagged with 3×FLAG (deletion of the 13 aa core) (protein, UniProt Q95RQ8)
chain: MAAKLEVREAMLTEKRVCRFCLTEQKLASIFEENPRVKTTANLPLQIMAITAIEVYAGDGMPGHICLECRLLFEHCYRFKQMCKRAETLLRQYPLTGNWPSPLEKPRAPMTMVASKKLLVVPAKTAEPSETPKKLLNTMAKSSSQVIIEDVQVLESAMVTPRTVAGSSPVPRRSHAYELKVDNNQELSMDDVQSMLEDMASELEKEFPDIPQKASPVKPGPAAPVEPRLATPKVKRDDSGNVAIVTEVLDSDLPLDDQDDPTKNAEKVATDVFPCPDCERSFPLQQLLEIHRLNHTRSRSFQCLLCEKSFFSKYDLAKHNFVHTGERPFKCAICSKAFTRKALLHRHERTHTDVPKFICVYCEKPFLSRQEMEKHAERHQKKRPFQCGVCTKSFAFKQGLERHETVHSTNLPFPCQHCERSFSTASKLARHLVAHAGKRAYPCKYCHKSYMLSHHLSRHLRTHTQTSDASFVCSECKVSYSNYNDLLDHALIHATASLKCPMCRKQIEDIDSVESHMDQHKQSERHACEFCDHIFLTQKCLQRHIEDDHVVEMEPYQNEFEDDGEGEGGVDEKEEHLDDFEDMDNVKQEEFVTEYLEDDALYEDHLDDSDESFTPPPPKQRKTNPPKDAQQSVRQTRSRDAQRITQKTGKNEGKPHHKLERNLKNRRSAK

Key:
[1] = biological target: T1, GST-fused Pita 95–302 aa fragment (Drosophila melanogaster); assay: pull-down; GST-pull-down (glutathione agarose, buffer C: 20 mM Tris-HCl pH 7.5, 150 mM NaCl, 10 mM MgCl2, 0.1 mM ZnCl2, 0.1% NP40, 10% glycerol; washes with 500 mM NaCl; +4 °C) and 6×His-pulldown (Zn-IDA resin, buffer A with 400 mM NaCl) of lysate of BL21 cells co-expressing GST-Pita derivatives and 6×His-thioredoxin-CP190[1–126]
[2] = biological target: T2, CP190 (Drosophila melanogaster); assay: co-IP; extracts of S2 cells co-transfected with 3×FLAG-Pita and CP190 plasmids, immunoprecipitated with anti-CP190 antibodies (nonspecific IgG as control), western blot with anti-FLAG

| Binder | binding [1] | binding [2] |
| --- | --- | --- |
| B1 | binds |  |
| B2 |  | binds |
| B3 |  | no binding |
